Source: PubChem BioAssay AID308 (DTP/NCI, 2004)
The list shows only some results of the screen, not a fair sample: it is rich in T/C values a quarter to a half above the control, in often repeated tests (any T/C) and in doses without a T/C. Further doses and runs are listed elsewhere. T/C: endpoint of the treated group in % of that of the vehicle group. Some entries give survivors of the animals treated and no T/C: the source holds a T/C of zero for them, seemingly a mark for toxic or unscored doses. Some survivor counts are full or nearly so, which does not show that the dose was tolerated: the source hardly ever lists a survival T/C far under the control, and the zero likely stands for such cases as well. Survivors were counted at the toxicity check, usually on the fifth day, unless a day is given; later deaths do not show. Schedules are NCI's codes, taken here to give the interval after Q, in days (D) or hours (H), and the number of doses after X. Some schedules carry Z or #; the key to these is not given. Where survival is the endpoint, this PubChem deposit counts one and a half times the control or more as active, and values a quarter to a half above the control carry no call in these data; other NCI protocols may use other cut-offs.

System: BDF1 mice, L1210 6-MP/6-TG resistant leukemia ip, survival T/C
Test: NCI In Vivo Anticancer Drug Screen. Data for tumor model L1210 Leukemia resistant to 6-MP and 6-Thioguanine; NSC 755, NSC 752 (intraperitoneal) in B6D2F1 (BDF1) mice
Conditions: T/C endpoint: mean survival time, higher T/C = longer survival
Method: The antitumor activity of compounds was measured in mice bearing transplantable tumors. Survival or tumor size were measured and the results are expressed as the measurement made in the treated group (T) divided by the measurement made in the vehicle treated control group (C). The tumor model used in this assay is L1210 Leukemia resistant to 6-MP and 6-Thioguanine; NSC 755, NSC 752 (intraperitoneal) in B6D2F1 (BDF1) mice

[1] = dose: 1000.0 mg/kg/injection, schedule: Q01DX015 (ip), vehicle: carboxymethylcellulose (CMC)

For COC12C(COC(N)=O)C3=C(C(=O)C(C)=C(N)C3=O)N1CC1C2N1C (configuration not stated), the T/C (dose: 0.5 mg/kg/injection, schedule: Q01DX015 (ip), vehicle: carboxymethylcellulose (CMC)) was 135 % of control, the T/C (dose: 6.7 mg/kg/injection, schedule: Q01DX015 (ip), vehicle: carboxymethylcellulose (CMC)) was 148 % of control and the T/C (dose: 10.0 mg/kg/injection, schedule: Q01DX015 (ip), vehicle: carboxymethylcellulose (CMC)) was 141 % of control.
CCCC(=O)OCC1OC(n2cnc3c(=S)nc(N)[nH]c32)C(OC(=O)CCC)C1OC(=O)CCC (configuration not stated) was tested, and the survivor count (dose: 48.0 mg/kg/injection, schedule: Q01DX Z (ip), vehicle: carboxymethylcellulose (CMC)) was 6 of 6.
With On1cnc(=S)c2[nH]cnc21 the survivor count (dose: 750.0 mg/kg/injection, schedule: Q01DX015 (ip), vehicle: carboxymethylcellulose (CMC)) was 6 of 6 and the survivor count [1] was 2 of 6.
With CC/C(=C(/CC)c1ccc(O)cc1)c1ccc(O)cc1 the survivor count (dose: 125.0 mg/kg/injection, schedule: Q01DX Z (sc), vehicle: steroid suspending solution) was 6 of 6, the survivor count (dose: 250.0 mg/kg/injection, schedule: Q01DX Z (sc), vehicle: steroid suspending solution) was 6 of 6 and the survivor count (dose: 500.0 mg/kg/injection, schedule: Q01DX Z (sc), vehicle: steroid suspending solution) was 6 of 6. For the same compound, the survivor count (dose: 1000.0 mg/kg/injection, schedule: Q01DX Z (sc), vehicle: steroid suspending solution) was 6 of 6.
O[C@H](CN1CC1)[C@@H](O)CN1CC1 was tested, and the T/C (dose: 0.5 mg/kg/injection, schedule: Q01DX Z (ip), vehicle: saline) was 144 % of control, the survivor count (dose: 2.0 mg/kg/injection, schedule: Q01DX Z (ip), vehicle: saline) was 6 of 6 and the survivor count (dose: 3.75 mg/kg/injection, schedule: Q01DX Z (ip), vehicle: saline) was 6 of 6. The survivor count (dose: 5.0 mg/kg/injection, schedule: Q01DX Z (ip), vehicle: saline) was 0 of 6, the survivor count (dose: 7.5 mg/kg/injection, schedule: Q01DX Z (ip), vehicle: saline) was 0 of 6 and the survivor count (dose: 10.0 mg/kg/injection, schedule: Q01DX Z (ip), vehicle: saline) was 0 of 6. The T/C (dose: 45.0 micrograms/kg/injection, schedule: Q01DX Z (ip), vehicle: saline) was 137 % of control.
For O=c1cnn(C2OC(CO)C(O)C2O)c(=O)[nH]1 (configuration not stated), the T/C (dose: 125.0 mg/kg/injection, schedule: Q01DX Z (ip), vehicle: saline) was 127 % of control and the T/C (dose: 250.0 mg/kg/injection, schedule: Q01DX Z (ip), vehicle: saline) was 127 % of control.
OCC1OC(n2cnc3c(=S)nc[nH]c32)C(O)C1O (configuration not stated) was tested, and the survivor count (dose: 400.0 mg/kg/injection, schedule: Q01DX010 (ip), vehicle: carboxymethylcellulose (CMC)) was 10 of 10.
In the case of CC(=O)CSc1ncnc2nc[nH]c12, the survivor count (dose: 500.0 mg/kg/injection, schedule: Q01DX015 (ip), vehicle: carboxymethylcellulose (CMC)) is reported as 2 of 6 and the survivor count [1] is reported as 0 of 6.
O=C(O)c1cc[c]([Hg][S]c2ncnc3nc[nH]c23)cc1 was tested, and the survivor count (dose: 50.0 mg/kg/injection, schedule: Q01DX015 (ip), vehicle: carboxymethylcellulose (CMC)) was 3 of 6.
Nc1nc(=S)c2ncn(C3OC(CO)CC3O)c2[nH]1 (configuration not stated) was tested, and the survivor count (dose: 12.0 mg/kg/injection, schedule: Q01DX009 (ip), vehicle: other) was 6 of 6, the survivor count (dose: 25.0 mg/kg/injection, schedule: Q01DX015 (ip), vehicle: other) was 6 of 6 and the survivor count (dose: 50.0 mg/kg/injection, schedule: Q01DX015 (ip), vehicle: other) was 6 of 6. The survivor count (dose: 100.0 mg/kg/injection, schedule: Q01DX015 (ip), vehicle: other) was 6 of 6.
With CC(=O)O[C@]1(C(C)=O)CC[C@H]2[C@@H]3C[C@H](C)C4=CC(=O)C=C[C@]4(C)[C@@]3(F)[C@@H](O)C[C@@]21C the survivor count (dose: 75.0 mg/kg/injection, schedule: Q01DX Z (sc), vehicle: steroid suspending solution) was 6 of 6 and the survivor count (dose: 150.0 mg/kg/injection, schedule: Q01DX Z (sc), vehicle: steroid suspending solution) was 6 of 6.
In the case of CN(Cc1cnc2nc(N)nc(N)c2n1)c1c(Cl)cc(C(=O)NC(CCC(=O)O)C(=O)O)cc1Cl (configuration not stated), the T/C (dose: 15.0 mg/kg/injection, schedule: Q01DX015 (ip), vehicle: carboxymethylcellulose (CMC)) is reported as 139 % of control, the T/C (dose: 80.0 mg/kg/injection, schedule: Q01DX015 (ip), vehicle: carboxymethylcellulose (CMC)) is reported as 125 % of control and the T/C (dose: 32.5 micrograms/kg/injection, schedule: Q01DX015 (ip), vehicle: carboxymethylcellulose (CMC)) is reported as 136 % of control.
